Reference: patent US8349801B2, “Peptide ligands for G-protein coupled receptors” (priority 2006, dated 2013)
At least one peptide structure holds a part that was inferred or is arguable (an end, a ring closure or a residue). No end group written: not given here.

Tests used:
FPRL1 = target: T1, FPRL1 (Homo sapiens, UniProt P25090); assay: Calcium flux in CHO-K1 cells co-transfected with FPRL1 and Gα16; assay type: cell-based; design: expressed in transfected cells; host or cells: CHO-K1 (ATCC-CCL-61), transient co-transfection
T1 sequence (P25090 1-351): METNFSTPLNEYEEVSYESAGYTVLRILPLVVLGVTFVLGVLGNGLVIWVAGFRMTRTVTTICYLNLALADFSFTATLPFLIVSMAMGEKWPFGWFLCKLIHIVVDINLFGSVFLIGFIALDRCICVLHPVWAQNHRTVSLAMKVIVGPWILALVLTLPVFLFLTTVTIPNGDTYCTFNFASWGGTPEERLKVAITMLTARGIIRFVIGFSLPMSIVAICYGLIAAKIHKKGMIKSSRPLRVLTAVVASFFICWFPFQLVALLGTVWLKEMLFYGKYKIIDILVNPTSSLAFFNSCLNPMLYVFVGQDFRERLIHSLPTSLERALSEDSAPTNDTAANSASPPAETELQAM
Description: (§1) The assay was carried out in CHO cells were transiently transfected with the GPCR of choice, by utilizing the promiscuous Gα16 to divert signaling to the Gq pathway, thus enabling readout of GPCR activation by testing for Calcium flux as described by Liu et al 2003 (Biomol Screen 8, 39-49).
(§2) All the peptides thus obtained were tested for their ability to change calcium flux in CHO—K1 cells (ATCC-CCL-61) transiently co-transfected with an expression vector containing the GPCR of choice and expression vector containing the Gα16 encoding cDNA. Expression constructs containing cDNA clones for MrgX1, MrgX2, Mas or FPRL1 were commercially obtained in one of the following expression vectors: pcDNA3.1, pCMV6, or MO2.
(§3) Transient transfections were performed using CHO—K1 cells as host cells. Cells (12 million) were plated into T75 flasks on the day preceding transfection. Cells were transfected with the appropriate GPCR expression vector and with a vector expressing Gα16 using a lipid-based reagent, MTI, according to the manufacturer's recommendation. Cells were transfected for 5 hours, then re-plated into 96-well dishes (60,000 cells per well) and grown overnight.
(§4) On the day of the experiment, cells were loaded with Fluo4-NW (Invitrogen) according to the manufacturer's recommendation. Plates were loaded into a FlexStation™ (Molecular Devices) plate reader and fluorescence was monitored. Seventeen seconds following initiation of reading, cells were stimulated with the indicated agonist/compound at final concentration of 1 μM. Each 96 well plate contained cells transfected with one GPCR expression vector and each of the examined peptides was tested in triplicate.
We defined a hit as a peptide which elicited a clear and distinct increase in intracellular calcium that is clearly visible and statistically significant upon examination of the calcium trace for at least two repeats. […]
Based on dose response experiments, EC50 best fit values were calculated by non-linear regression of sigmoidal dose-response curves, using Prism version 4 (GraphPad Software Inc., San Diego, Calif.). […]

MrgX2 = target: T2, MrgX2 (Homo sapiens, UniProt Q96LB1); assay: Calcium flux in CHO-K1 cells co-transfected with MrgX2 and Gα16; assay type: cell-based
T2 construct: expressed in transfected cells; host or cells: CHO-K1 (ATCC-CCL-61), transient co-transfection
T2 sequence (Q96LB1 1-330): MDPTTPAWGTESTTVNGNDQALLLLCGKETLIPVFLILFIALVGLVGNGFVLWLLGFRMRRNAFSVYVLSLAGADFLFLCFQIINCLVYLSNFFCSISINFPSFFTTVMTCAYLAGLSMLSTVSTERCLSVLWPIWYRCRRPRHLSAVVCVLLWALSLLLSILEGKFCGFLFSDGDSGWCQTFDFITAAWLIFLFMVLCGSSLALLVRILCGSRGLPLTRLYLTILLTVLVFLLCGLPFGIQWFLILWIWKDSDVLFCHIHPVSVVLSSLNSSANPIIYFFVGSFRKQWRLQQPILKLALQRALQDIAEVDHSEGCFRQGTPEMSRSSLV
Description: as §1, §2, §3, §4
We defined a hit as a peptide which elicited a clear and distinct increase in intracellular calcium that is clearly visible and statistically significant upon examination of the calcium trace for at least two repeats. The criterion for statistical significance was a p-value lower than 0.001 in a t-test comparing the levels of calcium before and after peptide addition.
Based on dose response experiments, EC50 best fit values were calculated by non-linear regression of sigmoidal dose-response curves, using Prism version 4 (GraphPad Software Inc., San Diego, Calif.). The formulae for the sigmoidal dose-response curves was defined as Y=Bottom+(Top−Bottom)/(1+10^ (LogEC50−X)*HillSlope))
The ability of Peptides to change calcium flux was examined in CHO—K1 cells co-transfected with MrgX2 and Gal 6.

| Sequence | calcium flux relative to the negative control (FPRL1; 1 μM, three wells, about 20 to 90 seconds) | ability to induce calcium flux, P33-derived peptides (FPRL1; 0.1, 1, 10, 100, 1000, 10000 nM) | calcium flux relative to the negative control (MrgX2; 1 μM, about 20 to 90 seconds) | eliciting calcium flux compared to cortistatin-14 (MrgX2; MrgX2-expressing cells, summary statement) |
| --- | --- | --- | --- | --- |
| SMVHRWSRAVLFPAAHRP [Peptide P33_V, SMVHRWSRAVLFPAAHRP] | increased calcium flux | similarly potent |  |  |
| FLGYSIYLNRKRRGDPAFKRRLRD [Peptide P61_S] |  |  | increased calcium flux | superior to cortistatin-14 |
